Measured values as given in PubChem BioAssay AID1347076 (National Center for Advancing Translational Sciences (NCATS), 2019).
The whole screen tested about 400,000 compounds, of which about 13,000 (3.2%) were called active. The shares of active, inactive and inconclusive entries below differ from those in the screen. The call rests on the fitted dose curve; in most records, active means well fitted cell-killing curve with a large enough effect; inconclusive means small, poorly fitted or top-dose-only effect, or effect the other way; inactive means flat fitted curve, though single readings scatter. Potencies of inconclusive entries are doubtful fits and often do not repeat.

experiment: qHTS assay for MDR1-selective chemotherapeutics: Primary screen using the drug-selected MDR subline cells KB-V1; details: KB-V1 MDR cells viability, CellTiter-Glo, 72 h; activity change, negative = cytotoxicity: at 46.1 µM (top of the series); further: nearly all actives have a fitted effect of over 60% in size
Procedure, shortened: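 Cytotoxicity via CellTiter-Glo luminescence after 72 h compound exposure at 37 degrees C. Cells: drug-selected KB-V1 line, DMEM phenol-red free plus 10% FBS. Compounds tested at multiple concentrations; normalized data fitted to concentration-effect curves.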
On the % scale 0 is the no-effect control and ±100 the full control effect; potency means the concentration at half of the fitted maximal effect.

Row | SMILES | activity change, negative = cytotoxicity | Potency
1 | CC1CCCN(c2ccc(C(=O)NCc3ccco3)cc2[N+](=O)[O-])C1 (stereo unspecified) | inactive: -29% | –
2 | COc1ccc(CNc2cc(NCCCO)c([N+](=O)[O-])c3nonc23)cc1 | inactive: -15.8% | –
3 | CC(=O)N1CCSc2ccc(S(=O)(=O)NCCc3ccc(Cl)cc3)cc21 | inactive: 2.96% | –
4 | CC(C)CC(=O)Nc1ccc(-c2cn3cccnc3n2)cc1 | inactive: 16.2% | –
5 | O=C(NCC(c1cccs1)N1CCOCC1)c1ccccc1NS(=O)(=O)c1cccc([N+](=O)[O-])c1 (stereo unspecified) | – | inconclusive: 29.1 µM [cytotoxic, single point]
6 | Cc1ccc(-n2cc(CN3CCN(C(=O)c4ncn[nH]4)CC3)c(-c3ccc(F)cc3)n2)cc1 | – | inconclusive: 3.66 µM [cytotoxic, full curve]
7 | Cc1ccc(CNC(=O)Cn2cc(C(F)(F)F)ccc2=O)cc1 | – | inconclusive: 16.4 µM [cytotoxic, partial curve, poor fit]
8 | CC(C)c1onc(C(=O)NC2CCCC2)c1[N+](=O)[O-] | – | inconclusive: 29.1 µM [rising, single point]
9 | O=C(NCc1ccccc1)C1C(c2ccccc2)=Nc2ccccc2N1C(=O)c1cnccn1 (stereo unspecified) | – | inconclusive: 18.4 µM [cytotoxic, partial curve, poor fit]
10 | CN(C)c1ccc(-c2nn3c(-c4ccc(Cl)cc4)nnc3s2)cc1 | – | inconclusive: 20.6 µM [cytotoxic, single point]
11 | CS(=O)(=O)c1nc2ccccc2n1Cc1ccccc1 | – | inconclusive: 29.1 µM [cytotoxic, single point]
12 | CC(C)CC(NS(=O)(=O)c1cccc(C(=O)O)c1)C(=O)O (stereo unspecified) | – | inconclusive: 16.4 µM [rising, partial curve]
13 | COC(=O)c1ccccc1NC(=O)c1ccc(-c2ccccc2F)o1 | – | inconclusive: 3.26 µM [cytotoxic, partial curve, poor fit]
14 | O=C(c1csc2c1CCCC2)N1CCN(c2ncccn2)CC1 | – | active: 16.4 µM
15 | c1cc(CNc2ccc3c(c2)OCO3)ccn1 | inactive: 9.71% | –
16 | Cc1nnsc1S(=O)c1ccc(Cl)cc1 (stereo unspecified) | inactive: -26.1% | –
17 | O=C(CN1C(=O)C2CC=CCC2C1=O)OCC(=O)c1ccc(Cl)c([N+](=O)[O-])c1 (stereo unspecified) | – | inconclusive: 0.0046 µM [rising, full curve, poor fit]
18 | Fc1cccc(/C=N/Nc2nccnc2Cl)c1 | – | active: 5.8 µM
19 | CC(=O)Nc1ccc(Nc2nc(-c3ccccc3)nc3ccccc23)cc1 | – | inconclusive: 20.6 µM [cytotoxic, partial curve, poor fit]
20 | CCOC(=O)CN(c1ccccc1C)S(=O)(=O)c1ccc(Cl)cc1 | inactive: 0.48% | –
21 | CC(=O)c1cccc(NC(=O)Cn2c(=O)c(CNc3ccc(C)cc3)cc3cc4c(cc32)OCCO4)c1 | inactive: -5.57% | –
22 | Cc1ccc(C(=O)Nc2ccc(Br)cc2)cc1S(=O)(=O)N1CCOCC1 | – | active: 4.11 µM
23 | c1ccc(-c2noc(CC3CCCCC3)n2)cc1 | – | inconclusive: 25.9 µM [rising, single point]
24 | CCn1c(=O)c2cc(C(=O)N(CCCOC(C)C)Cc3ccco3)sc2c2ccccc21 | – | inconclusive: 7.31 µM [cytotoxic, partial curve]

Numbers 1 through 20, quoted:
Row | SMILES | activity change, negative = cytotoxicity | Potency
1 | CC1CCCN(c2ccc(C(=O)NCc3ccco3)cc2[N+](=O)[O-])C1 (stereo unspecified) | inactive: -29% | –
2 | COc1ccc(CNc2cc(NCCCO)c([N+](=O)[O-])c3nonc23)cc1 | inactive: -15.8% | –
3 | CC(=O)N1CCSc2ccc(S(=O)(=O)NCCc3ccc(Cl)cc3)cc21 | inactive: 2.96% | –
4 | CC(C)CC(=O)Nc1ccc(-c2cn3cccnc3n2)cc1 | inactive: 16.2% | –
5 | O=C(NCC(c1cccs1)N1CCOCC1)c1ccccc1NS(=O)(=O)c1cccc([N+](=O)[O-])c1 (stereo unspecified) | – | inconclusive: 29.1 µM [cytotoxic, single point]
6 | Cc1ccc(-n2cc(CN3CCN(C(=O)c4ncn[nH]4)CC3)c(-c3ccc(F)cc3)n2)cc1 | – | inconclusive: 3.66 µM [cytotoxic, full curve]
7 | Cc1ccc(CNC(=O)Cn2cc(C(F)(F)F)ccc2=O)cc1 | – | inconclusive: 16.4 µM [cytotoxic, partial curve, poor fit]
8 | CC(C)c1onc(C(=O)NC2CCCC2)c1[N+](=O)[O-] | – | inconclusive: 29.1 µM [rising, single point]
9 | O=C(NCc1ccccc1)C1C(c2ccccc2)=Nc2ccccc2N1C(=O)c1cnccn1 (stereo unspecified) | – | inconclusive: 18.4 µM [cytotoxic, partial curve, poor fit]
10 | CN(C)c1ccc(-c2nn3c(-c4ccc(Cl)cc4)nnc3s2)cc1 | – | inconclusive: 20.6 µM [cytotoxic, single point]
11 | CS(=O)(=O)c1nc2ccccc2n1Cc1ccccc1 | – | inconclusive: 29.1 µM [cytotoxic, single point]
12 | CC(C)CC(NS(=O)(=O)c1cccc(C(=O)O)c1)C(=O)O (stereo unspecified) | – | inconclusive: 16.4 µM [rising, partial curve]
13 | COC(=O)c1ccccc1NC(=O)c1ccc(-c2ccccc2F)o1 | – | inconclusive: 3.26 µM [cytotoxic, partial curve, poor fit]
14 | O=C(c1csc2c1CCCC2)N1CCN(c2ncccn2)CC1 | – | active: 16.4 µM
15 | c1cc(CNc2ccc3c(c2)OCO3)ccn1 | inactive: 9.71% | –
16 | Cc1nnsc1S(=O)c1ccc(Cl)cc1 (stereo unspecified) | inactive: -26.1% | –
17 | O=C(CN1C(=O)C2CC=CCC2C1=O)OCC(=O)c1ccc(Cl)c([N+](=O)[O-])c1 (stereo unspecified) | – | inconclusive: 0.0046 µM [rising, full curve, poor fit]
18 | Fc1cccc(/C=N/Nc2nccnc2Cl)c1 | – | active: 5.8 µM
19 | CC(=O)Nc1ccc(Nc2nc(-c3ccccc3)nc3ccccc23)cc1 | – | inconclusive: 20.6 µM [cytotoxic, partial curve, poor fit]
20 | CCOC(=O)CN(c1ccccc1C)S(=O)(=O)c1ccc(Cl)cc1 | inactive: 0.48% | –

More entries

Row | SMILES | activity change, negative = cytotoxicity | Potency
25 | CCOCCCn1c(SCC(=O)NCc2ccc3c(c2)OCO3)nc2ccccc2c1=O | – | active: 14.6 µM
26 | CCCCN(C(C)=O)C1CC(=O)N(c2ccc(OCCC)cc2)C1=O (stereo unspecified) | – | inconclusive: 29.1 µM [cytotoxic, single point]
27 | CCCn1cc(S(=O)(=O)c2ccccc2)c(=O)c2cc(F)c(N3CCN(C)CC3)cc21 | – | inconclusive: 7.31 µM [rising, partial curve]
28 | O=C(/C=C(O)/C=C/c1ccc(O)cc1)/C=C/c1ccc(O)cc1 | – | inconclusive: 9.2 µM [rising, partial curve, poor fit]
29 | O=C(NCC(c1ccco1)N1CCc2ccccc21)c1ccccc1Cl (stereo unspecified) | – | inconclusive: 6.51 µM [cytotoxic, partial curve]
30 | COc1ccc(C(=O)NC2CC(C)(C)Cc3c2cnn3-c2ccccc2C)o1 (stereo unspecified) | – | active: 18.4 µM
31 | CCCOc1ccccc1C1NC(=O)NC(C)=C1C(=O)OCc1ccccc1 (stereo unspecified) | – | active: 20.6 µM
32 | CCNC(=O)c1cc2c(c(-c3cccc(-c4cc5ccccc5o4)c3)n1)[C@H](CCO)N(C(=O)NC(C)C)C2 | – | inconclusive: 29.1 µM [cytotoxic, single point]
33 | CCOC(=O)C1CCN(S(=O)(=O)c2cccc(-c3cn4cccnc4n3)c2)CC1 | inactive: -16.2% | –
34 | COc1cc2c(cc1OC)CN(C(=O)c1cc(=O)c3ccccc3o1)CC2 | – | active: 2.91 µM
35 | CCn1c(C)c(C2N3CC4(C)CN2CC(CC)(C3)C4=O)c2ccccc21 (stereo unspecified) | inactive: 3.1% | –
36 | COc1cc2c(C(=O)N3CCN(C)CC3)c(C)oc2cc1Br | – | inconclusive: 16.4 µM [cytotoxic, partial curve, poor fit]
37 | Cc1ccc(C2C3=C(CC(C)(C)CC3=O)OC3=C2C(=O)CC(C)(C)C3)cc1 | inactive: -22.2% | –
38 | c1csc(-c2nn3c(C4CCCCC4)nnc3s2)c1 | – | inconclusive: 16.4 µM [cytotoxic, partial curve]
39 | O=C(CC1CC2CCC1C2)NCCc1ccc(Cl)cc1 (stereo unspecified) | inactive: 3.38% | –
40 | COC(=O)c1c(C)[nH]c(C(=O)C(C)OC(=O)c2cnc(C)cn2)c1C (stereo unspecified) | – | inconclusive: 5.17 µM [cytotoxic, full curve]
41 | COc1ccc(NC(=O)CSc2nc3c([nH]c4ccccc43)c(=O)n2C)cc1 | – | inconclusive: 29.1 µM [rising, single point]
42 | CCN(CC)c1ccc2c(-c3ccc(S(=O)(=O)O)cc3S(=O)(=O)[O-])c3ccc(=[N+](CC)CC)cc-3oc2c1 | – | inconclusive: 7.31 µM [cytotoxic, partial curve, poor fit]
43 | CC1CC(=O)NN=C1c1ccc(N(C)C)c([N+](=O)[O-])c1 (stereo unspecified) | – | inconclusive: 0.0052 µM [cytotoxic, full curve, poor fit]
44 | Cc1cc(C)c2nc(SCC#N)cc(C)c2c1 | – | inconclusive: 29.1 µM [cytotoxic, single point]
45 | COc1cc2cc(-c3ccc(O)cc3O)nc(C)c2cc1OC | – | active: 6.51 µM
46 | Cc1ccc(C(=O)N2N=C(c3ccccc3O)CC2c2ccccc2)cc1 (stereo unspecified) | inactive: 9.94% | –
47 | COc1cc(NC(=O)c2cccnc2SC)cc(OC)c1OC | – | inconclusive: 0.461 µM [cytotoxic, full curve, poor fit]
48 | CCOC(=O)C1(CCCc2ccccc2)CCN(C(=O)CCc2cnn(C)c2)CC1 | – | inconclusive: 7.31 µM [cytotoxic, partial curve]

Row | SMILES | activity change, negative = cytotoxicity | Potency
49 | Cc1ccc(CNC(=O)C(=O)NCC(c2cccs2)S(=O)(=O)c2ccc(C)cc2)cc1 (stereo unspecified) | inactive: 0% | –
50 | CN(CCc1ccccc1)C(=O)c1ccc(NC(=O)Cc2ccc(NC(=O)C3CCCN(C(=O)C4CC4)C3)cc2)cc1 (stereo unspecified) | – | inconclusive: 0.92 µM [rising, partial curve]
51 | O=C(CNC(=O)c1ccc(Br)o1)NCC1COc2ccccc2O1 (stereo unspecified) | inconclusive: 7.68% | –
52 | O=C(CSc1nnc(-c2cccnc2)n1C1CCCCC1)NC1CCCC1 | – | inconclusive: 25.9 µM [cytotoxic, partial curve, poor fit]
53 | CC1Oc2ccccc2N(CC(=O)Nc2ccc3c(c2)OCCO3)C1=O (stereo unspecified) | – | active: 16.4 µM
54 | O=C1CCc2cc(NS(=O)(=O)c3ccc(Br)cc3)cc3c2N1CC3 | inactive: -11% | –
55 | CCOc1c2c(c(-c3ccc4c(c3)OCO4)c3cc(OC)c(OC)cc13)C(=O)OC2 | – | inconclusive: 1.3 µM [cytotoxic, full curve, poor fit]
56 | Cc1cc(C)cc(NC(=O)Nn2cnnc2)c1 | – | inconclusive: 2.59 µM [cytotoxic, partial curve, poor fit]
57 | C=CCC[C@H](Cc1ccc(F)cc1)C(=O)OC[C@@H]1CCCN1C(=O)[C@@H](CC=C)CC(=O)NCCO | inactive: 8.9% | –
58 | COc1cccc(CC(=O)Nc2ccc3nc(N4CCC(C)CC4)cc(C)c3c2)c1 | – | inconclusive: 23.1 µM [cytotoxic, partial curve, poor fit]
59 | Cc1c(C(=O)N(C)Cc2ccccc2)oc2ccc(S(=O)(=O)N3CCCC3)cc12 | inactive: -2.14% | –
60 | CS(=O)(=O)c1nc2c(cc1C#N)CCCC2 | – | inconclusive: 10.3 µM [rising, partial curve, poor fit]
61 | COc1cccc(CCN2CCC(CNS(=O)(=O)c3cc(-c4cc(C)no4)ccc3C)CC2)c1 | – | inconclusive: 18.4 µM [cytotoxic, partial curve, poor fit]
62 | c1ccc(NCc2ccncc2)cc1 | inactive: 2.5% | –
63 | O=C(O)c1ccc(N/N=C/c2ccc(OC(=O)c3ccccc3Cl)cc2)cc1 | inactive: 25.3% | –
64 | CC(=O)O[C@H]1CC[C@H]2[C@@H]3CCc4cc(O)ccc4[C@H]3CC[C@]12C | – | active: 14.6 µM
65 | CCc1nc2c(OCc3ccc(Cl)cc3)cccn2c1N(C)C(=O)c1ccco1 | – | inconclusive: 29.1 µM [cytotoxic, single point]
66 | COc1cc(CCNc2ccc3nnc(-c4ccccc4)n3n2)cc(OC)c1OC | – | inconclusive: 29.1 µM [cytotoxic, partial curve, poor fit]
67 | Cc1cc(C)n(CCNC(=O)C2CCC(=O)N(Cc3ccc(Cl)cc3)C2)n1 (stereo unspecified) | inconclusive: -1.73% | –
68 | Cn1cnnc1Sc1cc(N2CCN(S(=O)(=O)c3ccc4ccccc4c3)CC2)ccc1[N+](=O)[O-] | – | inconclusive: 18.4 µM [cytotoxic, partial curve]
69 | O=C(Cn1ncc(Cl)c(Cl)c1=O)N1CCOCC1 | inactive: 0% | –
70 | O=C(Nc1nc(NC(=O)c2ccco2)n(-c2ccccc2)n1)c1ccccc1 | – | active: 4.11 µM
71 | O=C(CN1CCN(C(=O)CCC(=O)N2CCC(c3ccccc3)=N2)CC1)Nc1ccc(F)cc1 | – | inconclusive: 8.2 µM [cytotoxic, partial curve, poor fit]
